Data source: PubChem BioAssay AID1508597 (Cure First, 2020)

Screen: 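Survival screen with siRNA in ovarian cancer cells derived from patients, with or without rucaparib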 (primary screen)
Cells: human ovarian carcinoma lines grown from tumours: OCI-P5x (papillary serous) and OCI-C5x (clear cell)
Reagent: siRNA pool against human genes, 1.25 pmol siRNA per well
Timing: 72 h or 96 h, depending on the cell culture
Challenge: rucaparib 20 µM (about IC30) or vehicle, present until read-out
Rucaparib or vehicle: Rucaparib
Cell line: OCI-C5x (clear cell)
Detection: 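ATP luminescence measured at 72 or 96 h according to the culture, then normalised and expressed as percent viability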
Reading the numbers: viability, normalised: higher = more viable cells remaining
Hit rule: 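Active when normalised viability falls below 80 percent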
Meaning of the calls: active = viability under 80%; inactive = viability 80% or more
This is an unselected part of the about 2,100 reagents, under one of the conditions tested. 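Calls flag viability under 80% in either arm, not effects specific to rucaparib; the reference for percent is not stated.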 A reagent listed more than once was tested more than once; the source does not tell the runs apart. Reagent sequences are not shown. Not stated in the record: the 100% reference.

The opening 2 records, to show the layout:
POU4F1, technical replicate 1 → viability, normalised (%) = 52.8; Outcome = active
POU4F1, technical replicate 2 → viability, normalised (%) = 49.9; Outcome = active

Results, from the start:
POU4F1, technical replicate 1 → viability, normalised (%) = 52.8; Outcome = active
POU4F1, technical replicate 2 → viability, normalised (%) = 49.9; Outcome = active
POU4F1, technical replicate 3 → viability, normalised (%) = 46.4; Outcome = active
PRKDC, technical replicate 1 → viability, normalised (%) = 52.6; Outcome = active
PRKDC, technical replicate 1 → viability, normalised (%) = 76.9; Outcome = active
PRKDC, technical replicate 2 → viability, normalised (%) = 65.3; Outcome = active
PRKDC, technical replicate 2 → viability, normalised (%) = 61.3; Outcome = active
PRKDC, technical replicate 3 → viability, normalised (%) = 60.5; Outcome = active
PRKDC, technical replicate 3 → viability, normalised (%) = 51.3; Outcome = active
ACIN1, technical replicate 1 → viability, normalised (%) = 42.1; Outcome = active
ACIN1, technical replicate 2 → viability, normalised (%) = 55.9; Outcome = active
ACIN1, technical replicate 3 → viability, normalised (%) = 38.3; Outcome = active
GGCT, technical replicate 1 → viability, normalised (%) = 51.9; Outcome = active
GGCT, technical replicate 2 → viability, normalised (%) = 42.5; Outcome = active
GGCT, technical replicate 3 → viability, normalised (%) = 41.3; Outcome = active
UPF1, technical replicate 1 → viability, normalised (%) = 48.5; Outcome = active
UPF1, technical replicate 2 → viability, normalised (%) = 43.5; Outcome = active
UPF1, technical replicate 3 → viability, normalised (%) = 30.6; Outcome = active
BABAM2, technical replicate 1 → viability, normalised (%) = 47.7; Outcome = active
BABAM2, technical replicate 1 → viability, normalised (%) = 62; Outcome = active
BABAM2, technical replicate 2 → viability, normalised (%) = 43.9; Outcome = active
BABAM2, technical replicate 2 → viability, normalised (%) = 71.4; Outcome = active
BABAM2, technical replicate 3 → viability, normalised (%) = 40.4; Outcome = active
BABAM2, technical replicate 3 → viability, normalised (%) = 55.9; Outcome = active
TDRD5, technical replicate 1 → viability, normalised (%) = 52.2; Outcome = active
TDRD5, technical replicate 2 → viability, normalised (%) = 61.9; Outcome = active
TDRD5, technical replicate 3 → viability, normalised (%) = 54.9; Outcome = active
JMJD4, technical replicate 1 → viability, normalised (%) = 53.3; Outcome = active
JMJD4, technical replicate 2 → viability, normalised (%) = 63.2; Outcome = active
JMJD4, technical replicate 3 → viability, normalised (%) = 46.5; Outcome = active
ADAM17, technical replicate 1 → viability, normalised (%) = 71.7; Outcome = active
ADAM17, technical replicate 2 → viability, normalised (%) = 43.2; Outcome = active
ADAM17, technical replicate 3 → viability, normalised (%) = 57.9; Outcome = active
